This note sets out measurements from doi:10.1101/2021.02.22.432209.

Protein sequences, listed by entry. Tags and fused reporters are not part of them. Lines headed by an entry give the natural chain unless they say otherwise; changes in a name come on top.
UniProt O95166: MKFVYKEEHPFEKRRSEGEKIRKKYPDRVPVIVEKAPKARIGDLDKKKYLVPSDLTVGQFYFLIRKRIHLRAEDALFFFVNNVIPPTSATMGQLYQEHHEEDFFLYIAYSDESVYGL
UniProt Q9P278: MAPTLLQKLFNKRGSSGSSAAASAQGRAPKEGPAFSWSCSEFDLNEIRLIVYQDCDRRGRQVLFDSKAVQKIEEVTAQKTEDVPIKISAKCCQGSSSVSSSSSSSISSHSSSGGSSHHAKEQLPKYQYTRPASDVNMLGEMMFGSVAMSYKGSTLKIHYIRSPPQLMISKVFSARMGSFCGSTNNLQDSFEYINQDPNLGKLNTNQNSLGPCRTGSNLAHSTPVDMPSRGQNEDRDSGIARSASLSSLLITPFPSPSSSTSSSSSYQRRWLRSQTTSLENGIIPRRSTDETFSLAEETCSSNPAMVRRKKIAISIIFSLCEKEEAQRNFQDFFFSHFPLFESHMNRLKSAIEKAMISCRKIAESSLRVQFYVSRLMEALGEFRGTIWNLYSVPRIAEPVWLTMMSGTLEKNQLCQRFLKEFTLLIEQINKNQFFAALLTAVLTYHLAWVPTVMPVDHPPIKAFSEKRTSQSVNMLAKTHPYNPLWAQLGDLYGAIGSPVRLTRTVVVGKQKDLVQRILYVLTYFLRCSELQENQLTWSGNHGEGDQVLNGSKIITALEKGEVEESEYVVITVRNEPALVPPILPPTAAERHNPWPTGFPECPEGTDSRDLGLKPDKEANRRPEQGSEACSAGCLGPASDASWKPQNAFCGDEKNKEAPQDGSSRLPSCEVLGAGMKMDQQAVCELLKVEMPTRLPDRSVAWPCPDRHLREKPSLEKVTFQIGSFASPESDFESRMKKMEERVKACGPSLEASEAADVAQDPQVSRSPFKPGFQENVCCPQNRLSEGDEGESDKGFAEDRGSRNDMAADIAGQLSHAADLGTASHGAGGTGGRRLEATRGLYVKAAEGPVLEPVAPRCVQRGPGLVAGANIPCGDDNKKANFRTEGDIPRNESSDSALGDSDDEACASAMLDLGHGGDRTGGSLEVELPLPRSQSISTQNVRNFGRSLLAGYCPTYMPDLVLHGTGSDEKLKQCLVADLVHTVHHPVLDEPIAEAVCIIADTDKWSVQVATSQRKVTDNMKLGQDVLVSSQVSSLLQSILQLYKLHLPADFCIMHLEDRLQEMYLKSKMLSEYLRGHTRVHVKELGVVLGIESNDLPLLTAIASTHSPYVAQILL

In the assay the target is GABARAP, full-length (as part of the FNIP2-GABARAP chimera) (human) (UniProt O95166). Put plainly: crystal structure.

No constants are given. Whether binding was seen depends on the method and setting. Some entries that bind do so weakly or less than the wild type.

B1: FNIP2 residues 558-576 (as part of the FNIP2-GABARAP chimera) (domain or fragment, UniProt Q9P278 558-576)
chain: EKGEVEESEYVVITVRNEP
With B1, the binding result is “binds”.
